# In patent US20240374763A1, “DIAGNOSIS AND MONITORING USING EXTRADOMAIN-B FIBRONECTIN TARGETED PROBES” (Case Western Reserve University, priority 2020, published 2024):
# Test system: BxPC3-GFP-Luc intrapancreatic tumors
# Assay: MRMI of BxPC3-GFP-Luc intrapancreatic tumors
# Type: in vivo, mice
# Details: 0.1 mmol/kg
# Description: For flank xenograft models, 4×10^6 Capan-1 cells suspended in 100 μL of a 6 mg/mL Matrigel (Corning, Corning, NY) solution was injected subcutaneously into the flank of eight-week-old female nu/nu mice. The tumor bearing mice were imaged after tumor volumes exceeded 300 mm^3. For orthotopic intrapancreatic models, the pancreas of four-week-old female nu/nu mice were surgically exposed and 1×10^6 BxPC3-GFP-Luc or PANC-1-GFP-Luc cells suspended in 100 μL of an Matrigel solution (6 mg/mL) was injected into the pancreatic tissue. Prior to imaging, growth of tumor was verified by bioluminescence imaging with intraperitoneal injection of d-luciferin on IVIS Spectrum system (Perkin Elmer, Waltham, MA).
# Mice bearing intrapancreatic tumors were anesthetized and a tail vein catheter was inserted. Image acquisition was performed on a MR Solutions 3T MRS 3000 scanner with a mouse radiofrequency coil. […]
# Image files were exported and analyzed in Horus software. […] The contrast-to-noise ratio of the tumor (CNR) was calculated using the following equation, where σ_noise is the standard deviation of intensities from an ROI drawn outside of the mouse body: […]
row,Substance,time after injection at which tumor contrast enhancement returned to background level
1,"Gd(HP-DO3A) [gadoteridol, reference compound]",20 min
2,"ZD2-N3-Gd(HP-DO3A) (TVRTSAD; cyclised or stapled) [MT218, EDB-FN-targeted MRI contrast agent; ZD2 peptide conjugated to the clinical macrocyclic agent Gd(HP-DO3A)]",30 min
